From patent US20240325533A1, “MODIFIED IMMUNE CELLS AND METHODS OF USING THE SAME” (Beam Therapeutics Inc., priority 2021, published 2024)
Some of these results come from one statement about several compounds together.

Legend:
A2AR target sites = assay: Next generation sequencing (NGS) measurement of editing at A2AR (ADORA2A) target sites in CAR-T cells; type: cell-based, human; settings: FIG. 3, electroporation only (EP) as control
A2BR target sites = assay: NGS measurement of editing at A2BR target sites in CAR-T cells; type: cell-based; settings: FIG. 3, EP only as control
HIF1α target sites = assay: NGS measurement of editing at HIF1α target sites in CAR-T cells; type: cell-based; settings: FIG. 3, EP only as control

| Sequence | editing at A2AR target sites (base editing efficiencies), NGS (A2AR target sites) [%] | editing at A2BR target sites (base editing efficiencies), NGS (A2BR target sites) [%] | editing at HIF1α target sites (base editing efficiencies), NGS (HIF1α target sites) [%] |
| --- | --- | --- | --- |
| UCUCCCCAGGUACAAUGGCU (chemistry not given here) [sgRNA155, guide RNA spacer; A2AR; ABE (ABE8.20); Ex2 SA (Pos 8)] | > 90 |  |  |
| CUGCUCACCGGAGCGGGAUG (chemistry not given here) [sgRNA145, guide RNA spacer; A2AR; CBE; Ex1 SD (Pos 8)] | > 90 |  |  |
| GGCCAUGCUGCUGGAGACAC (chemistry not given here) [sgRNA221, guide RNA spacer; A2BR; ABE; Ex1 START (Pos 5)] |  | > 90 |  |
| UCACCUGAGCGGGACACAGA (chemistry not given here) [sgRNA222, guide RNA spacer; A2BR; Ex1 SD (Pos 4); used with CBE] |  | > 90 |  |
| UUUCAGAACUACAGUUCCUG (chemistry not given here) [sgRNA173, guide RNA spacer; HIF1α; ABE (ABE8.20); Ex13 SA (Pos 5)] |  |  | > 90 |
| ACACAGGUAUUGCACUGCAC (chemistry not given here) [sgRNA170, guide RNA spacer; HIF1α; ABE; Ex6 SA (Pos 5)] |  |  | > 90 |
